These are yes or no findings as the source states them, for the method shown. Binding seen in cells or lysates may run through a third protein. These calls come from enrichment with a bait or labelling near it, and not all partners need be listed.
Target: T1, Kinesin family member 2C (KIF2C), stably overexpressed in HepG2 cells (human) (UniProt Q99661)
T1 sequence: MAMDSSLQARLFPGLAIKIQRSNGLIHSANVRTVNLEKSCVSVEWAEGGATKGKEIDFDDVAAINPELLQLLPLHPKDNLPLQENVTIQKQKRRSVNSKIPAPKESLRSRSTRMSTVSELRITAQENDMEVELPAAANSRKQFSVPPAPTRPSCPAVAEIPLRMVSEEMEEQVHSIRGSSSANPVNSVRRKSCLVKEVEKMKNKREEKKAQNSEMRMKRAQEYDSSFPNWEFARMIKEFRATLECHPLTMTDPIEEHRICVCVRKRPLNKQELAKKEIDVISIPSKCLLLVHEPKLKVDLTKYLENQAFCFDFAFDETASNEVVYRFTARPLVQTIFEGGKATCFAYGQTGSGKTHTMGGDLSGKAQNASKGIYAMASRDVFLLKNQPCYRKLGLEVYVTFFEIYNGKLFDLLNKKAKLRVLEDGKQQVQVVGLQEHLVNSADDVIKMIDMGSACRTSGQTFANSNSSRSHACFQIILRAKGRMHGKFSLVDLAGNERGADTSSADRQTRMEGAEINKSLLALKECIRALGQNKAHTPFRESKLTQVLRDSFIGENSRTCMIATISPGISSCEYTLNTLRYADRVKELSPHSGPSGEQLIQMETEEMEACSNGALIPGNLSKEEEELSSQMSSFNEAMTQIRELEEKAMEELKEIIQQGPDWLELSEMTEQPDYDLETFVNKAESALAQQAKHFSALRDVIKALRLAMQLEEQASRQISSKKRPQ
Experiment: affinity purification with mass spectrometry; immunoprecipitation from KIF2C-overexpressing HepG2 cells with KIF2C antibody (normal mouse IgG as control), TNE lysis buffer (10 mmol/L Tris-HCl pH 7.5, 150 mmol/L NaCl, 2 mmol/L EDTA, 0.5% Nonidet P-40), protein A/G beads 4 °C 4 h; silver staining, trypsin digest and mass spectrometry

B1: endogenous TBC1D7 (protein, UniProt Q9P0N9 1-293)
chain: MTEDSQRNFRSVYYEKVGFRGVEEKKSLEILLKDDRLDTEKLCTFSQRFPLPSMYRALVWKVLLGILPPHHESHAKVMMYRKEQYLDVLHALKVVRFVSDATPQAEVYLRMYQLESGKLPRSPSFPLEPDDEVFLAIAKAMEEMVEDSVDCYWITRRFVNQLNTKYRDSLPQLPKAFEQYLNLEDGRLLTHLRMCSAAPKLPYDLWFKRCFAGCLPESSLQRVWDKVVSGSCKILVFVAVEILLTFKIKVMALNSAEKITKFLENIPQDSSDAIVSKAIDLWHKHCGTPVHSS
**Q.** With B1 as the binder, how does the binding read?
**A.** Its binding is “binds”.
